Common to all, as to assay: affinity purification with mass spectrometry; protein complexes purified by Flag-tagged WT and G189R-mutant PRMT9 from HEK293 cells, resolved on a gel, in-gel digestion, LC/MS; two biological repeats
Assay [1] deals with Flag-tagged wild type PRMT9 (protein arginine methyltransferase 9) (human) (UniProt Q6P2P2).
In assay [2] the target is Flag-tagged G189R-mutant PRMT9 (human) (UniProt Q6P2P2).
Assay [3] concerns the target Flag-tagged wild type PRMT9 (protein arginine methyltransferase 9) (human), Q6P2P2. To be noted: remark: other sources report otherwise.

Protein sequences, listed by entry. Tags and fused reporters are not part of them. Lines headed by an entry give the natural chain unless they say otherwise; changes in a name come on top.
UniProt Q6P2P2: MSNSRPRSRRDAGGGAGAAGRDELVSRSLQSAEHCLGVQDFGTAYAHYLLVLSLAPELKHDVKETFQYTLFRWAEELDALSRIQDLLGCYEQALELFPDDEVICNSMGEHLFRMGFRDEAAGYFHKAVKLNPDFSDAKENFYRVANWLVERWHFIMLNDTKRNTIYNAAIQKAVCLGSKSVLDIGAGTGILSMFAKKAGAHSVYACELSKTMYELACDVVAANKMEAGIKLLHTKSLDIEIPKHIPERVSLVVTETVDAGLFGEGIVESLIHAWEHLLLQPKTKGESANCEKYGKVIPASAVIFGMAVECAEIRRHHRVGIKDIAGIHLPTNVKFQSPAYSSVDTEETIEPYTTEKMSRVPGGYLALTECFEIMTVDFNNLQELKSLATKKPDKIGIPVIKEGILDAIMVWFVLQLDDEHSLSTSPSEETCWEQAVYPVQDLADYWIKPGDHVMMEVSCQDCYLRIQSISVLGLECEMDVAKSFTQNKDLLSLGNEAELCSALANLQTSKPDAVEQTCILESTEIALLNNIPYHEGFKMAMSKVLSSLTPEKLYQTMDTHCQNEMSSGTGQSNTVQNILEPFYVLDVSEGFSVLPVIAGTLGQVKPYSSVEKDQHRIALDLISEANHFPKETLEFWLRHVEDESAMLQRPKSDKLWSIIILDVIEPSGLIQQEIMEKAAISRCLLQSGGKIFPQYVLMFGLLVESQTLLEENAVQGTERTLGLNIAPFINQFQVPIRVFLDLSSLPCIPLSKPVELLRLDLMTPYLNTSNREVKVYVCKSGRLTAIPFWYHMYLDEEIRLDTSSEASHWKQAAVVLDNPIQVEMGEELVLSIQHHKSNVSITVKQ
UniProt Q13435: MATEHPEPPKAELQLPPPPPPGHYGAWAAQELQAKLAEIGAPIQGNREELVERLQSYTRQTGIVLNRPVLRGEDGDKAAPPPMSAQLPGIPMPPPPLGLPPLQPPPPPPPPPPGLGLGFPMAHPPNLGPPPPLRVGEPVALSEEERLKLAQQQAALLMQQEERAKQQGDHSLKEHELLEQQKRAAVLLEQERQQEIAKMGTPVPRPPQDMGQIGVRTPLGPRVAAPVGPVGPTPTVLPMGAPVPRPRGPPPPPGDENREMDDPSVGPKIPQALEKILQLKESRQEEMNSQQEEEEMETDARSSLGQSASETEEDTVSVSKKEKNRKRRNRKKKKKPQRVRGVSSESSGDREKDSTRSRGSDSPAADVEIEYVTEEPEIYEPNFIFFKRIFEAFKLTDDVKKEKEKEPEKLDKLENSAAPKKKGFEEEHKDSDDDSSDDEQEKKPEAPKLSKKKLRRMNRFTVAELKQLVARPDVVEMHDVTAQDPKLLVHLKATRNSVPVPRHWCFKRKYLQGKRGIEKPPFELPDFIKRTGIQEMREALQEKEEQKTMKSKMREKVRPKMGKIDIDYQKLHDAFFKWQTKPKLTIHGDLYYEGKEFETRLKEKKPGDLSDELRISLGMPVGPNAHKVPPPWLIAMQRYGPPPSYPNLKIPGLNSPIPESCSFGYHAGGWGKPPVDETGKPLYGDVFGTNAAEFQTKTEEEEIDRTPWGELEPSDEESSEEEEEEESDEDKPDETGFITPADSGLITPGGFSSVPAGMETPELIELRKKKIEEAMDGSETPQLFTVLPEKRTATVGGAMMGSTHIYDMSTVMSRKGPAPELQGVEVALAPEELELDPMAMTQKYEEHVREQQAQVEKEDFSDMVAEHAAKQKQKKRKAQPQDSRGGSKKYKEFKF
UniProt Q15386: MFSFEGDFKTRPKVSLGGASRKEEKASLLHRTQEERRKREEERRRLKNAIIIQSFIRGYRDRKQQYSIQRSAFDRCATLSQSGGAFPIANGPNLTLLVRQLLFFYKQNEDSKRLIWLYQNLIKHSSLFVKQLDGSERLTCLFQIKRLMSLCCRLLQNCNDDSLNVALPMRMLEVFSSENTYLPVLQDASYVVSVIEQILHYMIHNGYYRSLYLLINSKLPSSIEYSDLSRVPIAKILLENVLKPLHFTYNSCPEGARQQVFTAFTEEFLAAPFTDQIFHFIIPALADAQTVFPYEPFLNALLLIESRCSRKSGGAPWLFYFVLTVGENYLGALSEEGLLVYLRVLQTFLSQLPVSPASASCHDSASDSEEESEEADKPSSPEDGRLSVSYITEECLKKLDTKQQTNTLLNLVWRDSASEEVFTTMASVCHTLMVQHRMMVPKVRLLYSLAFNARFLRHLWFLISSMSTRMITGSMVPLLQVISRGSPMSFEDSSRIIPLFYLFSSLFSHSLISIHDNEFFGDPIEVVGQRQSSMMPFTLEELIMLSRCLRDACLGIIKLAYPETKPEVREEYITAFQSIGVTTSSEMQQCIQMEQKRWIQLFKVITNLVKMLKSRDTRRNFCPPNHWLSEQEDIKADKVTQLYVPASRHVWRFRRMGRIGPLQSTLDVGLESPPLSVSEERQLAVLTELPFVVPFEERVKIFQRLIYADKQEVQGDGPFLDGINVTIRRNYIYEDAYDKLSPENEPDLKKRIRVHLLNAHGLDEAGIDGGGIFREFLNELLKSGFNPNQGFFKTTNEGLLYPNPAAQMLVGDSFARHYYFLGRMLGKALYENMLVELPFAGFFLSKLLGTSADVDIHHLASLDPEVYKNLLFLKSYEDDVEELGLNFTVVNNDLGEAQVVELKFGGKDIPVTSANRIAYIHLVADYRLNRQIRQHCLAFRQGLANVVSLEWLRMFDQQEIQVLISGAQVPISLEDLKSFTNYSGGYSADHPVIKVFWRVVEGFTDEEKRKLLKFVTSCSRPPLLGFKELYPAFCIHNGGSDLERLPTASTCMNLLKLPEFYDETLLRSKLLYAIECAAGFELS

Results are given in words; binding and its absence hold for the method and conditions named. In cells and extracts the contact can be indirect. A yes stands for co-enrichment or nearness to the bait. Other partners may have been found. For some of these results: A no says only that the protein was not detected with the bait.

“splicing factor 3B subunit 2 (SF3B2), endogenous (from UniProt Q13435 1-895)”: the binding result in assay [1] is recorded as “binds”; in assay [2], “no binding”. For “ubiquitin-protein ligase E3C (UBE3C) (from UniProt Q15386 1-1083) (enzyme)”, the binding result in assay [1] and in assay [2] was “binds” each time. With “valosin-containing protein (VCP)/p97 (from UniProt P55072 1-806)”, the binding result in assay [1] and in assay [2] was “binds” throughout.

B1: SF3B4, Q15427 1-424 (protein)
chain: MAAGPISERNQDATVYVGGLDEKVSEPLLWELFLQAGPVVNTHMPKDRVTGQHQGYGFVEFLSEEDADYAIKIMNMIKLYGKPIRVNKASAHNKNLDVGANIFIGNLDPEIDEKLLYDTFSAFGVILQTPKIMRDPDTGNSKGYAFINFASFDASDAAIEAMNGQYLCNRPITVSYAFKKDSKGERHGSAAERLLAAQNPLSQADRPHQLFADAPPPPSAPNPVVSSLGSGLPPPGMPPPGSFPPPVPPPGALPPGIPPAMPPPPMPPGAAGHGPPSAGTPGAGHPGHGHSHPHPFPPGGMPHPGMSQMQLAHHGPHGLGHPHAGPPGSGGQPPPRPPPGMPHPGPPPMGMPPRGPPFGSPMGHPGPMPPHGMRGPPPLMPPHGYTGPPRPPPYGYQRGPLPPPRPTPRPPVPPRGPLRGPLPQ
B1: the binding entry in assay [3] is reported as “binds”.

The values above are taken from PMC10984984, “Loss-of-function mutation in PRMT9 causes abnormal synapse development by dysregulation of RNA alternative splicing”.
